Values quoted from earlier work in patent US5703069A, “Method for inhibiting and controlling viral growth” (Warner-Lambert Company, priority 1996, dated 1997).

Tested on: TPA-mediated CD4 down regulation and HIV expression
Conditions: HIV-infected cells; Hamamoto et al. 1989; cited from earlier work

SMILES: CN[C@@H]1C[C@H]2O[C@@](C)([C@@H]1OC)n1c3ccccc3c3c4c(c5c6ccccc6n2c5c31)C(=O)NC4 [Staurosporine]
- inhibition of TPA-mediated CD4 down regulation and augmentation of HIV expression (in words): effective TPA inhibitor for both of these actions
